Assay: general procedure: Fmoc solid-phase peptide synthesis; NovaSyn TGR resin
Settings: whole synthesis, scale 0.112 mmol

With “Ac-C-PEG3-C(S-tBu)GQIEYLAKQIVDNAIQQAGC(S-tBu)G-NH2” the isolated mass was 32.7 mg.

— patent publication US9371393B2 (Immunomedics, Inc., priority 2009, dated 2016)
